Among the data in patent KR20160003317A are binding values, retold here.

Sequences of proteins named here, by UniProt entry; tags and fusion partners are left off. Residues count along the entry.
UniProt P02769, residues 25-607: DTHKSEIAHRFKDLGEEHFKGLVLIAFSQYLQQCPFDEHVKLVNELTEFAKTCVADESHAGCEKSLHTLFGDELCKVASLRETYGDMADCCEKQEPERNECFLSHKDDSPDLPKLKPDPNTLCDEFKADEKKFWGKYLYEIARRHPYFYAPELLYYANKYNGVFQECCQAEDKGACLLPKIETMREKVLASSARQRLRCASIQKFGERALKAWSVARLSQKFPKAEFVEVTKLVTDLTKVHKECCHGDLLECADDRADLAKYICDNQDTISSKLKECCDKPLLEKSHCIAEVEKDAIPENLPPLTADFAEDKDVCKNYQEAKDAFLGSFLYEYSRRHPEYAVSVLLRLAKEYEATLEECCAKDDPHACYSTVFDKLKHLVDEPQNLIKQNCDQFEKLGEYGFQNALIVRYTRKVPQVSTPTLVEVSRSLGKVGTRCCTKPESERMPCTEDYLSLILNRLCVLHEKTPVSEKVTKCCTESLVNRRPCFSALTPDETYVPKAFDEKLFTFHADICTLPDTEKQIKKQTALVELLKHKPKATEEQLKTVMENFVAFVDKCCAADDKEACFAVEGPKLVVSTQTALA

The assay concerns the target 송아지 혈청 알부민(BSA) (bovine (printed: 송아지 혈청 알부민)) (UniProt P02769). As to the kind of experiment: phage ELISA, 1% BSA coated, anti-M13-peroxidase, absorbance 492 nm.

No constants are given. Whether binding was seen depends on the method and setting. Some binding calls cover weakened binding; strength is not graded here.

B1: SC05-140 (scFv)
scFv: EVQLVESGGVAVQPGRSLRLSCAASGFSFRDYGMHWVRQAAGKGLEWVAFIWPHGVNRFYADSMEGRFTISRDDSKNMLYLEMNNLRTEDTALYYCTRDQDYVPRKYFDLWGRGTLVTVSSGTGGSGGTGSGTGGSTSYVLTQPPSVSVAPGQTARITCGGNNIGSKSVHWYQQKPGQSPVLVMYQDRRRPSGIPERFSGSNSGHTATLTISGTQAMDEADYYCQAWDSSTGVFGTGTQLTVL
For B1, the binding entry is “binds”.

B2: SC06-421 (scFv)
scFv: EVQLVESGAEVKKPGESLKISCKGSGYSFTSHWIGWVRQMPGKGLEWMGIIYPGDSDTRYSPSFQGQVTISVDKSISTAYLQWSSLKASDTAMYYCARLGSSRWSHFDYWGQGTLVTVSSGTGGSGGTGSGTGGSTQSALTQPPSASGSPGQSVTISCTGTSTDVGGYNYVSWYQHHPGKAPKLVIYGVSKRPSRVPDRFSGSKSGNTASLTVSGLQAEDEADYYCSSYAGSNNLVFGGGTKLTVL
In the case of B2, the binding result is “binds”.
